# Measured values from PubChem BioAssay AID485298 (National Center for Advancing Translational Sciences (NCATS), 2010).
# Among all 320,000 compounds or so, about 740 (0.23%) were called active. Inconclusive results, whose numbers are uncertain, are shown with a selection of clear calls. The call rests on the fitted dose curve; in most records, active means well fitted activation curve with a large enough effect; inconclusive means small, poorly fitted or top-dose-only effect; inactive means no such curve, though single readings can be large or run the other way. Potencies of inconclusive entries are doubtful fits and often do not repeat. The source holds several records for some structures; these can differ, active in one and inactive in another.
# Assay: qHTS Assay for Small Molecule Inhibitors of Mitochondrial Division or Activators of Mitochondrial Fusion; further: nearly all actives have a fitted effect of over 45% in size
# Details: S. cerevisiae fusion-defective mutant growth rescue, CellTiterGlo 48 h; series mostly up to 46.1 µM
# In short: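 Compounds are tested for their ability to restore growth of mitochondrial fusion-defective yeast strains at non-permissive 37C in YPEG medium over 48 hours. Viability is quantified by luciferase luminescence.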
# Potency means the concentration at half of the fitted maximal effect.
row,Compound,Potency
1,CN(CCOc1ccccc1)CC(=O)Nc1ccc([N+](=O)[O-])cc1Cl,"inconclusive: 17.8 µM [activator, single point]"
2,COCCN(C(=O)C1CC(=O)N(Cc2ccccc2)C1)c1nc(-c2ccc([N+](=O)[O-])cc2)cs1 (stereo not drawn),"inconclusive: 22.4 µM [activator, single point]"
3,COC(=O)c1ccccc1NC(=O)C1CCCN(c2nnc(-n3cccc3)s2)C1 (stereo not drawn),"inconclusive: 14.1 µM [activator, partial curve]"
4,O=C(NCc1cccnc1)c1nc(-c2ccccc2)n(-c2ccccc2)n1,inactive
5,CCOC(=O)c1cnc(NCc2ccccc2)nc1C,inactive
6,Oc1[nH]c2c(Cl)cc(Cl)cc2c1N=NC(=S)NCC1CCCO1 (stereo not drawn),"inconclusive: 10 µM [activator, single point]"
7,C/C(=N\NC(=S)NCc1ccccc1)c1ccc(C#N)cc1,"inconclusive: 15.8 µM [activator, single point]"
8,COc1ccc(/C=C/C(=O)N2CCCc3ccccc32)c(OC)c1,"inconclusive: 25.1 µM [activator, partial curve]"
9,COc1ccc(N(CC(=O)NCCC2=CCCCC2)S(=O)(=O)c2ccccc2F)cc1,"inconclusive: 35.5 µM [activator, single point]"
10,O=C(N/N=C/c1ccc([N+](=O)[O-])s1)C(O)c1ccccc1 (stereo not drawn),"inconclusive: 3.55 µM [activator, partial curve]"
11,COc1cccc(NC(=O)CN(C)C(=O)c2cccc(S(=O)(=O)N3c4ccccc4CC3C)c2)c1 (stereo not drawn),inactive
12,COc1cccc(NC(=S)N(Cc2cccc(Br)c2)CC2CCC(C(=O)O)CC2)c1 (stereo not drawn),"inconclusive: 20 µM [activator, single point]"
13,Cn1nccc1C(=O)NC1CCCc2c1cnn2-c1ccc(C(C)(C)C)cc1 (stereo not drawn),inactive
14,CC(C)Cn1nc(NC(=O)C2CCCO2)c2cc3ccccc3nc21 (stereo not drawn),inactive
15,CC1=C(CC(=O)O)c2cc(F)ccc2/C1=C\c1ccc(S(C)(=O)=O)cc1,"inconclusive: 29.1 µM [activator, single point]"
16,O=[N+]([O-])c1cc(S(=O)(=O)NC2=NCCCCC2)ccc1NCC1CCCCC1,"inconclusive: 22.4 µM [activator, partial curve]"
17,COc1ccc(-c2n[nH]c(C)c2-c2cnn(-c3ccccc3)c2)c(O)c1,"inconclusive: 35.5 µM [activator, single point]"
18,COc1ccc(C(=O)Nc2nc(-c3cccs3)cs2)cc1,"inconclusive: 25.1 µM [activator, single point]"
19,CC1=C(C(=O)OCc2ccccc2)C(c2ccc3ccccc3c2)NC(=O)N1CCCCCC(=O)O (stereo not drawn),"inconclusive: 25.1 µM [activator, single point]"
20,COc1ccc(-c2oc3ccccc3c2C(=O)OCc2ccccc2)cc1,inactive
21,CCOC(=O)c1c(-c2ccccc2)csc1NC(=O)C(C)NCc1ccco1 (stereo not drawn),"inconclusive: 22.4 µM [activator, single point]"
22,Cc1nc2sccn2c(=O)c1CCN1CCC(=C(c2ccccc2)c2ccc(F)cc2)CC1,active: 18.4 µM

row,Compound,Potency
1,O=C(COC(=O)c1sc2ccccc2c1Cl)NC1CCCCC1,"inconclusive: 35.5 µM [activator, single point]"
2,O=C(Nc1ccccc1Oc1ccccc1)c1ccc(Br)o1,"inconclusive: 31.6 µM [activator, single point]"
3,O=C(Nc1ccc(N2CCN(C(=O)c3ccco3)CC2)c(Cl)c1)c1cccs1,"inconclusive: 20 µM [activator, single point]"
4,CCOc1ccccc1NC(=O)NCc1ccccc1,"inconclusive: 35.5 µM [activator, single point]"
5,Cc1cccc(NC(=O)c2ccc(S(=O)(=O)N3CCCCC3)cc2)n1,"inconclusive: 6.31 µM [activator, single point]"
6,Cc1cc(-c2ccc(Cl)cc2Cl)c(C#N)c(=O)[nH]1,inactive
7,Cc1csc(NC(=O)C(CC(C)C)NS(=O)(=O)c2ccc3c(c2)oc(=O)n3C)n1 (stereo not drawn),"inconclusive: 5.62 µM [activator, single point]"
8,COc1ccc(NC(=S)N(CCCN2CCOCC2)C(C)c2cc3cccc(OC)c3o2)cc1 (stereo not drawn),"inconclusive: 35.5 µM [activator, partial curve]"
9,CCOc1ccccc1N(C)S(=O)(=O)c1ccc2[nH]cc(C(=O)N(CCOC)CCOC)c(=O)c2c1,inactive
10,Cc1n[nH]c(C)c1Sc1ccccc1N=Cc1cc([N+](=O)[O-])ccc1O,inactive
11,CC(/C=C1\SC(=S)N(C(C(=O)O)C(C)C)C1=O)=C\c1ccccc1 (stereo not drawn),inactive
12,CC1CCCN(CCC(=O)c2ccc(Br)cc2)C1 (stereo not drawn),inactive
13,CCN(CC(=O)Nc1cc(Cl)ccc1C)C(=O)c1oc2ccc(OC)cc2c1C,"inconclusive: 20 µM [activator, single point]"
14,CSc1ccccc1NC(=O)CN1c2ccccc2CC1C (stereo not drawn),"inconclusive: 12.6 µM [activator, partial curve]"
15,CCOC(=O)CNC(=O)C1CCCc2c1[nH]c1ccc(Cl)cc21 (stereo not drawn),"inconclusive: 12.6 µM [activator, partial curve]"
16,O=C(NC1CC1)c1ccc2c(c1)C1C3CCC(C3)C1C(c1ccccc1)N2 (stereo not drawn),"inconclusive: 17.8 µM [activator, single point]"
17,CCN1C(=O)[C@@H]2[C@@H](c3ccc(-c4ccc5c(c4)OCO5)cc3)N3CCCC[C@@]3(C(=O)OC)[C@@H]2C1=O,"inconclusive: 10 µM [activator, partial curve]"
18,O=[N+]([O-])c1ccc(-c2c(-c3ccccc3)ncc3ccc(F)cc23)cc1,"inconclusive: 31.6 µM [activator, single point]"
19,COc1ccc([C@H]2CC(=O)C=C(c3cc(C)ccc3F)C2)cc1,"inconclusive: 15.8 µM [activator, single point]"
20,CCCC(C(=O)NCc1ccco1)N(C(=O)CNS(=O)(=O)c1ccc(Cl)cc1)C1CCCC1 (stereo not drawn),inactive
21,Cc1cccc(OCC(=O)N/N=C/c2ccc3c(c2)OCO3)c1,inactive

# Given as tab-separated lines: part of the list above
row	Compound	Potency
6	Cc1cc(-c2ccc(Cl)cc2Cl)c(C#N)c(=O)[nH]1	inactive
7	Cc1csc(NC(=O)C(CC(C)C)NS(=O)(=O)c2ccc3c(c2)oc(=O)n3C)n1 (stereo not drawn)	inconclusive: 5.62 µM [activator, single point]
18	O=[N+]([O-])c1ccc(-c2c(-c3ccccc3)ncc3ccc(F)cc23)cc1	inconclusive: 31.6 µM [activator, single point]
